Literature values in paper PMC8175309, “Translational CNS Steady-State Drug Disposition Model in Rats, Monkeys, and Humans for Quantitative Prediction of Brain-to-Plasma and Cerebrospinal Fluid-to-Plasma Unbound Concentration Ratios” (The AAPS Journal, 2021).

Columns and labels:
[1] = *8 ref Uchida et al. (31); cited from earlier work
[2] = in vivo; cited from earlier work

| SMILES | Kp,uu,brain Monkey [1] | Kp,uu,CSF Rat [2] | Kp,uu,brain Rat [2] |
| --- | --- | --- | --- |
| CN1C(=O)CN=C(c2ccccc2)c2cc(Cl)ccc21 [Diazepam] | 0.877 | 0.78 0.847 | 1.07 0.805 |
| CN1CC[C@]23c4c5ccc(O)c4O[C@H]2[C@@H](O)C=C[C@H]3[C@H]1C5 [Morphine] |  | 0.4 | 0.150 |
